No constants are given. Whether binding was seen depends on the method and setting. Some binding calls cover weakened binding; strength is not graded here. One block for each binder: values may come before it.
Experiments:
[1] = biological target: human SIRPa-Fc fusion protein (extracellular domain of human SIRPa fused to mouse Fc) (human) (UniProt P78324); experiment: competition ELISA on coated SIRPa-Fc, against 3C2
[2] = biological target: human SIRPa-Fc fusion protein (extracellular domain of human SIRPa fused to mouse Fc) (human) (UniProt P78324); experiment: competition ELISA on coated SIRPa-Fc; Kwar is the varied competitor, the detected antibodies are 7E11 and 9B11
[3] = biological target: human SIRPa-Fc fusion protein (extracellular domain of human SIRPa fused to mouse Fc) (human) (UniProt P78324); experiment: competition ELISA on coated SIRPa-Fc; Kwar is the varied competitor, the detected antibodies are 3C2 and 1H9
[4] = biological target: human SIRPa-Fc fusion protein (extracellular domain of human SIRPa fused to mouse Fc) (human) (UniProt P78324); experiment: ELISA on coated SIRPa-Fc; 1H9 detected in the absence or presence of 50- or 100-times excess of mouse Kwar
[5] = biological target: human SIRPa-Fc fusion protein (extracellular domain of human SIRPa fused to mouse Fc) (human) (UniProt P78324); experiment: hybridoma screening ELISA, binding to human SIRPa
[6] = biological target: human SIRPa-Fc fusion protein (extracellular domain of human SIRPa fused to mouse Fc) (human) (UniProt P78324); experiment: ELISA on coated SIRPa-Fc; mouse 1H9 detected, bar without competitor
[7] = biological target: human SIRPa-Fc fusion protein (extracellular domain of human SIRPa fused to mouse Fc) (human) (UniProt P78324); experiment: competition ELISA on coated SIRPa-Fc; mouse 1H9 detected, excess 1H9 (or 3C2) is the varied competitor
[8] = biological target: human SIRP-alpha variant 2 (V2) on monocytes and macrophages of V2 homozygous donors (human) (UniProt Q5TFQ8); experiment: flow cytometry with 1H9-488 on monocytes and macrophages of genotyped donors
[9] = biological target: human SIRP-alpha variant 1 (V1) on monocytes and macrophages of V1 homozygous donors (human) (UniProt P78324); experiment: as above
[10] = biological target: human SIRPa-Fc fusion protein (extracellular domain of human SIRPa fused to mouse Fc) (human) (UniProt P78324); experiment: competition ELISA on coated SIRPa-Fc, against mouse 1H9
[11] = biological target: human SIRP-alpha variant 2 (V2) on monocytes and macrophages of V2 homozygous donors (human) (UniProt Q5TFQ8); experiment: binding to cells of genotyped donors (figure legend)
[12] = biological target: human SIRP-alpha variant 1 (V1) on monocytes and macrophages of V1 homozygous donors (human) (UniProt P78324); experiment: as above
[13] = biological target: human SIRP-alpha variant 2 (V2) on monocytes and macrophages of V2 homozygous donors (human) (UniProt Q5TFQ8); experiment: flow cytometry on monocytes; blocking of AF488-conjugated human CD47-Fc (1 ug/ml) binding by increasing Hu1H9-G1
[14] = biological target: human SIRP-alpha variant 1 (V1) on monocytes and macrophages of V1 homozygous donors (human) (UniProt P78324); experiment: as above
[15] = biological target: human SIRPa-Fc fusion protein (extracellular domain of human SIRPa fused to mouse Fc) (human) (UniProt P78324); experiment: competition ELISA on coated SIRPa-Fc; humanized 1H9 is the varied competitor, mouse 1H9 is detected
[16] = biological target: human SIRP-alpha variant 2 (V2) on monocytes and macrophages of V2 homozygous donors (human) (UniProt Q5TFQ8); experiment: flow cytometry on monocytes and macrophages of genotyped donors
[17] = biological target: human SIRP-alpha variant 1 (V1) on monocytes and macrophages of V1 homozygous donors (human) (UniProt P78324); experiment: as above
[18] = biological target: human SIRPa-Fc fusion protein (extracellular domain of human SIRPa fused to mouse Fc) (human) (UniProt P78324); experiment: competition ELISA on coated SIRPa-Fc, against mouse 3C2
[19] = biological target: human SIRPa-Fc fusion protein (extracellular domain of human SIRPa fused to mouse Fc) (human) (UniProt P78324); experiment: competition ELISA on coated SIRPa-Fc; humanized 3C2 is the varied competitor, mouse 3C2 is detected
[20] = biological target: human SIRPa-Fc fusion protein (extracellular domain of human SIRPa fused to mouse Fc) (human) (UniProt P78324); experiment: ELISA on coated SIRPa-Fc; 9B11 detected in the absence or presence of 50x or 100x Kwar
[21] = biological target: human SIRPa-Fc fusion protein (extracellular domain of human SIRPa fused to mouse Fc) (human) (UniProt P78324); experiment: ELISA on coated SIRPa-Fc; 7E11 detected in the absence or presence of 50x or 100x Kwar
[22] = biological target: human SIRPa-Fc fusion protein (extracellular domain of human SIRPa fused to mouse Fc) (human) (UniProt P78324); experiment: competition ELISA on coated SIRPa-Fc; mouse 3C2 detected, excess 3C2 (or 1H9) is the varied competitor
[23] = biological target: human SIRPa-Fc fusion protein (extracellular domain of human SIRPa fused to mouse Fc) (human) (UniProt P78324); experiment: ELISA on coated SIRPa-Fc; mouse 3C2 detected, bar without competitor
[24] = biological target: human SIRPa-Fc fusion protein (extracellular domain of human SIRPa fused to mouse Fc) (human) (UniProt P78324); experiment: ELISA on coated SIRPa-Fc; 3C2 detected in the absence or presence of 50- or 100-times excess of mouse Kwar

Chains of the proteins cited; added tags and fusions are not shown. Lines headed by an entry give the natural chain unless they say otherwise; changes in a name come on top.
UniProt P78324: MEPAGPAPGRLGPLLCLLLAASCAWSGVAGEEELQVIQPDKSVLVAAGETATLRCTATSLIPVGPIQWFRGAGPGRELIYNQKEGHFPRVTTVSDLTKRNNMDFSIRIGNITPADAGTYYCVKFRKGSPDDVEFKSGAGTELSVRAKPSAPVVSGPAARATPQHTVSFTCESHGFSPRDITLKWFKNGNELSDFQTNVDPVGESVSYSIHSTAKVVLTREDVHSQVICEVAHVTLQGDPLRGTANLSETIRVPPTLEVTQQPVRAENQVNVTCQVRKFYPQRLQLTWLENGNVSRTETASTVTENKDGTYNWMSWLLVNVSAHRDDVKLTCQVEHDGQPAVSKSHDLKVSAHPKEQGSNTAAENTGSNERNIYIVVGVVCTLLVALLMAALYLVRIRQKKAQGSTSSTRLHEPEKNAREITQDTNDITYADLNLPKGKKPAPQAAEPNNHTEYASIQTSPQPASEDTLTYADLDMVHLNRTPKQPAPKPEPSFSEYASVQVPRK
UniProt Q5TFQ8: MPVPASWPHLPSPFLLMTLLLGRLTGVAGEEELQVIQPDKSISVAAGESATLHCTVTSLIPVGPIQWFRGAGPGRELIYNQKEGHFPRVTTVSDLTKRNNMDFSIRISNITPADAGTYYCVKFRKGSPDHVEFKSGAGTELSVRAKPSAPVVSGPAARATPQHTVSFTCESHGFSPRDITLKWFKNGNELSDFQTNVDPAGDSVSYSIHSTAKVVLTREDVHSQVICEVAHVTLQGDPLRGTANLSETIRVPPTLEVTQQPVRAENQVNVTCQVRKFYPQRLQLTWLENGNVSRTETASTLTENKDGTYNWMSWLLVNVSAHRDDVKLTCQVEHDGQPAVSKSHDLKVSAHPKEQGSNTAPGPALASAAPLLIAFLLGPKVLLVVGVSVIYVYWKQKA

B2: 1H9 (parental mouse anti-human SIRPa monoclonal antibody) (antibody, V domains shown)
VH: QVQLQQPGAERVKPGASVKMSCKASGYTFTSYWITWVKQRPGQGLEWIGDIYPGSGSTNHIEKFKSKATLTVDTSSNTAYMQLSRLTSEDSAVYYCATGYGSSYGYFDYWGQGTTLTVSS
VL: DIQMTQSPASLSASVGETVTITCRASENIYSYLAWYQQKQGKSPQLLVYTAKTLAEGVPSRFSGSGSGTQFSLKINSLQPEDFGNYYCQHQYGPPFTFGSGTRLVIK
binding [4]: binds
binding [5]: binds
binding [6]: binds
binding [7]: binds

B6: 7E11 (antibody, V domains shown)
VH: QVKLQESGAELVRPGSSVKLSCKASGYTFTSYWMHWVKQRPIQGLEWIGNIDPSDSDTHYNQKFKDKATLTVDNSSSTAYMQLSSLTSEDSAVYYCASYGNYGENAMDYWGQGTSVTVSS
VL: DILMTQTPLSLPVSLGDQASISCRSSQSIVHSYGNTYLEWYLQKPGQSPKLLIYKVSNRFSGVPDRFSGSGSGTDFTLKISRVEAEDLGVYYCFQGSHVPFTFGSGTKLEIK
binding [21]: binds

B7: 3C2 (parental mouse anti-human SIRPa monoclonal antibody) (antibody, V domains shown)
VH: QVQLQQPGAELVRPGSSVKLSCKASGYTFTSYWMHWVKQRPIQGLEWIGNIDPSDSDTHYNQKFKDKATLTVDKSSSTAYMQLSSLTSEDSAVYYCARGYSKYYAMDYWGQGTSVTVSS
VL: DVLMTQTPLSLSVSLGDQASISCRSSQSIVHSYGNTYLEWYLQKPGQSPKLLIYKVSNRFSGVPDRFSGSGSGTDFTLKISRVEAEDLGVYYCFQGSHVPYTFGGGTKLEIK
binding [22]: binds
binding [23]: binds
binding [24]: binds
binding [5]: binds

Further lines, results first:

binding [1]: binds
binding [2]: binds
binding [3]: binds
B1: KWar (anti-SIRPa antibody of WO 2015/138600) (antibody, V domains shown)
VH: EVQLVQSGAEVKKPGATVKISCKVSGFNIKDYYIHWVQQAPGKGLEWIGRIDPEDGETKYAPKFQDRATITADTSTDTAYMELSSLRSEDTAVYYCARWGAYWGQGTLVTVSS
VL: QIVLTQSPPTLSLSPGERVTLTCSASSSVSSSYLYWYQQKPGQAPKLWIYSTSNLASGVPARFSGSGSGTSYTLTISSLQPEDFAVYFCHQWSSYPRTFGAGTKLEIK

binding [8]: binds
binding [9]: binds
binding [10]: binds
binding [11]: binds
binding [12]: binds
binding [13]: binds
binding [14]: binds
binding [15]: binds
binding [16]: binds
binding [17]: binds
B3: Humanized 1H9 (antibody, human IgG1, kappa, N297A, V domains shown)
VH: QVQLVQSGAEVKKPGASVKVSCKASGYTFTSYWITWVKQAPGQGLEWIGDIYPGSGSTNHIEKFKSKATLTVDTSISTAYMELSRLRSDDTAVYYCATGYGSSYGYFDYWGQGTLVTVSS
VL: DIQMTQSPSSLSASVGDRVTITCRASENIYSYLAWYQQKPGKAPKLLIYTAKTLAEGVPSRFSGSGSGTDFTLTISSLQPEDFATYYCQHQYGPPFTFGQGTKLEIKR

binding [18]: binds
binding [19]: binds
B4: Humanized 3C2 (antibody, human IgG1, kappa, N297A, V domains shown)
VH: QVQLVQSGAEVKKPGASVKVSCKASGYTFTSYWMHWVRQAPGQGLEWMGNIDPSDSDTHYNQKFKDRVTMTRDTSTSTVYMELSSLRSEDTAVYYCARGYSKYYAMDYWGQGTLVTVSS
VL: DIVMTQTPLSLSVTPGQPASISCRSSQSIVHSYGNTYLEWYLQKPGQSPQLLIYKVSNRFSGVPDRFSGSGSGTDFTLKISRVEAEDVGVYYCFQGSHVPYTFGQGTKLEIKR

binding [20]: binds
B5: 9B11 (antibody, V domains shown)
VH: EVQLQQSGAELVKPGASVKLSCTASGFNIKDYYIHWVKQRTEQGLEWIGRIDPEDGETKYAPKFQGKATITADTSSNTAYLQLNSLTSEDTAVYSCAKGGFAYWGQGTLVTVSA
VL: QIVLTQSPAIMSASPGEKVTLTCSASSSVSSSYLYWYQQKPGSSPKLWIYSTSNLASGVPARFSGSGSGTSYSLTISSMEAEDAASYFCHQWSSHPYTFGGGTKLEIK

— US20210171654A1
